# Results: article PMC12751603 (Journal of Experimental & Clinical Cancer Research : CR, 2025)
# Sequences of proteins named here, by UniProt entry; tags and fusion partners are left off. Residues count along the entry.
# UniProt P08069, residues 31-1367: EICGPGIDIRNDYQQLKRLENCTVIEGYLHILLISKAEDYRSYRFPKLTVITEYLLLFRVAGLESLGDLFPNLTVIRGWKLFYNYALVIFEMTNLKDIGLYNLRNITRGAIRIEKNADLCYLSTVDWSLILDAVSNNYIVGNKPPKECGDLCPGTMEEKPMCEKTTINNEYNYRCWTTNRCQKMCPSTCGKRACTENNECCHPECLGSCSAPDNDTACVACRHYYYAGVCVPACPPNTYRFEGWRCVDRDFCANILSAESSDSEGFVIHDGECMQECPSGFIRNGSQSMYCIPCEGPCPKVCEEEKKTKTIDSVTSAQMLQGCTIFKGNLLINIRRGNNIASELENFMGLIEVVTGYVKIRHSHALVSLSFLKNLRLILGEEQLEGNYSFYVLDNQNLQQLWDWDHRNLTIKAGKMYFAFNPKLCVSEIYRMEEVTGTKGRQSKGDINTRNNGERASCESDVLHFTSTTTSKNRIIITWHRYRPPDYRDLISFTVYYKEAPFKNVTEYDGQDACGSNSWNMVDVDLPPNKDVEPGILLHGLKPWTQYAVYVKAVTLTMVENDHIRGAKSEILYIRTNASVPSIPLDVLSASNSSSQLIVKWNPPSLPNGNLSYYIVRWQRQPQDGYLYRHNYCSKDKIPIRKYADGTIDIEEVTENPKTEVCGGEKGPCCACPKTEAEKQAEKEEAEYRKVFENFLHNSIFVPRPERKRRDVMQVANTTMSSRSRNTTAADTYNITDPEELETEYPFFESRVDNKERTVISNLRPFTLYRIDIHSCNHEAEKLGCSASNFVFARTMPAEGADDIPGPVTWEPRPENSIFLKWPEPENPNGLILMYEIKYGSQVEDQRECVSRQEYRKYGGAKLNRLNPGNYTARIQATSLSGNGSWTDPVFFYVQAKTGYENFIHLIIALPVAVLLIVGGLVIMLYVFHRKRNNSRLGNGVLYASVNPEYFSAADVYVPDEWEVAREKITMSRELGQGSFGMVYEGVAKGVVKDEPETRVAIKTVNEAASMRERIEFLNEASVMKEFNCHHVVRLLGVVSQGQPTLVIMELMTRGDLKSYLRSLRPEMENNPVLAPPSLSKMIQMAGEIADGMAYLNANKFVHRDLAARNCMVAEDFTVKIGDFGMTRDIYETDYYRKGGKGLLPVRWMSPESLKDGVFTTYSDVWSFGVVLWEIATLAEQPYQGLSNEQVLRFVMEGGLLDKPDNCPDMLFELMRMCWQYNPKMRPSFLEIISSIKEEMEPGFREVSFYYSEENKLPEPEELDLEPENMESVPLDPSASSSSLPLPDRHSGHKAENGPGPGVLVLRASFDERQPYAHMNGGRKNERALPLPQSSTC
# Residue numbers refer to the chain shown, from its start. No constants are given. Whether binding was seen depends on the method and setting. For part of these data: In cells and extracts the contact can be indirect. Some results given as binding are weak or reduced against the parent protein; the word gives no strength. For part of these data: Sequences can lack the tags named with a protein.
# T1: Flag-tagged PTPN9 (UniProt P43378)
# T1 sequence: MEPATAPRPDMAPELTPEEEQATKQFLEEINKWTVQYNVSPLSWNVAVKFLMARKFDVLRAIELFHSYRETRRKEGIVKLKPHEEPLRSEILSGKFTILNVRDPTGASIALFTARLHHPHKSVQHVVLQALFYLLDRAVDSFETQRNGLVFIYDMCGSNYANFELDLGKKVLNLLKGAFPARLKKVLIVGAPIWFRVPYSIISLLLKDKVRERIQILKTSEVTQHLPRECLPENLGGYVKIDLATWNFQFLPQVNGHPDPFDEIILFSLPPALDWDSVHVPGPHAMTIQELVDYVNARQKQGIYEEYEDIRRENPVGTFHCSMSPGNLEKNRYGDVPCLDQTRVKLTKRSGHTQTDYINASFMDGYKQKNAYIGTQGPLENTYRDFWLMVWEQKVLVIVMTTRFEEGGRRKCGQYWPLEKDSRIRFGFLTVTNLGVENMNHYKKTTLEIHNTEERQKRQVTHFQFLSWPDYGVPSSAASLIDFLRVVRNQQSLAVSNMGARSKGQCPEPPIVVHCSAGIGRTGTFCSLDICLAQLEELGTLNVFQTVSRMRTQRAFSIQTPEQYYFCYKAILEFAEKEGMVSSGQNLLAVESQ
# T2: Protein tyrosine phosphatase, non-receptor type 9 (endogenous) (human (endogenous in QBC-939 and RBE)) (UniProt P43378)
# T2 sequence: T1 sequence
# T3: His-PTPN9-C515S/D470A (UniProt P43378)
# T3 sequence: T1 sequence with D470A, C515S
# How the values were obtained:
# Flag-tagged PTPN9 = biological target: T1, Flag-tagged PTPN9; assay: co-IP; Flag-tagged PTPN9 (wild type or point mutants) and HA-tagged IGF1R overexpressed in HEK293T cells; anti-Flag immunoprecipitation and western blot; with IGF1 stimulation in Fig. 5G
# [1] = biological target: T2, Protein tyrosine phosphatase, non-receptor type 9 (endogenous) (human (endogenous in QBC-939 and RBE)); assay: co-IP; reciprocal endogenous co-immunoprecipitation in QBC-939 and RBE cholangiocarcinoma cell lines
# His-PTPN9-C515S/D470A = biological target: T3, His-PTPN9-C515S/D470A; assay: crystal structure; His-PTPN9-C515S/D470A (15 mg/ml) mixed with peptide at molar ratio 1:3 in 20 mM HEPES pH 7.2, 350 mM NaCl, 1 mM DTT; crystals at 4 °C; P1 space group; 2.0 Å; both purified
molecule,measurement,setting,value
HA-tagged IGF1R (from UniProt P08069 31-1367) (receptor),binding,Flag-tagged PTPN9,binds
Insulin-like growth factor 1 receptor (endogenous) (from UniProt P08069 31-1367),binding,[1],binds
IYETDYYRKGGK (phosphotyrosine at Y1165 and Y1166 (IYETDpYpYRKGGK)) [p-IGF1R^Y1165/1166 peptide],binding,His-PTPN9-C515S/D470A,binds
